Results from patent US12138267B2, “Methods of treating respiratory depression modulated by a non-opioid agent” (Enalare Therapeutics Inc., priority 2021, dated 2024).
Where two headings read alike, the source gives them in different places.

Test system: healthy participants

CCCNc1nc(NCCC)nc(N(C)OC)n1 [Compound A]
SpO2 during hypoxic measurements (Compound A high dose): 80.4-84.2% | SpO2 during hypoxic measurements (Compound A low dose): 81.2-83.7%
